## Results of single-concentration screens

From ChEMBL document CHEMBL3988442, “University of Dundee, Small-Polar-MMV Screening Library” (2021).

Mtb cholesterol medium: 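Phenotypic screen: M. tuberculosis growth, cholesterol and DPPC medium, 4 days; the read-out is not stated. Compounds at 50 µM. Direction is inferred from retests: higher values go with more growth inhibition. Of about 69,000 compounds tested this way, about 370 (0.54%) reached 50% or more in at least one test.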
Mtb glucose medium: 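Whole-cell growth test on Mycobacterium tuberculosis, read after 3 days in glucose-containing 7H9 medium; the read-out is not stated. Tested at 50 µM. The record gives no direction; compounds that gave an IC50 in retests scored well above the rest, so higher reads as more growth inhibition. About 69,000 compounds were tested under these conditions; 1.1% (about 760) showed 50% or more at least once.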

Each number is a percent effect as filed.
The record does not define 0% and 100%; most values in the screen are far below 50% and negative numbers occur (in some assays of this library far below -100).
This is an unselected part of the compounds tested.
Two or more numbers in one place are separate tests of the same structure; such repeats can differ widely.

SMILES	Mtb cholesterol medium	Mtb glucose medium
O=C(O)C(F)(F)F.[H][C@@]12CCCO[C@]1([H])[C@@H](OCc1ccncc1)CN2C(=O)CC1CCCC1	-25.24	-27.28
Cc1ncc2c(n1)CN(CC(=O)N1CCc3sccc3C1)CC2	-19.38 and 2.335	-20.55
[H][C@]12CC[C@]([H])(CN(C3CCOCC3)C1)N(Cc1cnc(SCC)nc1)C2	3.618	25.44
CNC(=O)COC(=O)c1cccc(-n2ccc(C(F)(F)F)n2)c1	16.31	-1.395 and -1.151
CCS(=O)(=O)CCNC(=O)C1(c2cccc(Cl)c2)CC1	25.3	2.997 and -24.43
COCCOc1ccc(NC(=O)C2CC(=O)N(CC3CC3)C2)cn1 (configuration not stated)	-89.29	-46.28
Cn1cc(CNCC2(N3CCCCC3)Cc3ccccc3C2)cn1	13.03	4.908
O=C(Nc1cccc(CN2CCC(CO)CC2)c1)c1cc(Cl)c[nH]1	-4.399	-8.023
CN(Cc1cnn(C)c1)C(=O)CCC(=O)c1ccc2c(c1)OCCO2	-0.8241	1.175
CSCCC1c2nc[nH]c2CCN1Cc1cncn1C (configuration not stated)	-27.3	-17.45
CCOCCCNCc1cc(O)c2cc(C)ccc2n1	-11.54	-15.8 and 5.935
CN(C)S(=O)(=O)N1CCC2(COCc3cnc(-c4cccnc4)nc32)C1 (configuration not stated)	6.878	7.95
Cc1nc(CNC(=O)NCC(O)c2ccc(F)c(F)c2)cs1 (configuration not stated)	-0.1118	-15.98
CN(C)C(=O)c1ccc2c(c1)N(C)C(CC(=O)NCc1ncc[nH]1)CO2 (configuration not stated)	-7.229	17.85
CN(CC1Cc2ccccc2CN1C)C(=O)CSc1nccn1C (configuration not stated)	24.21	6.113
COCCCNC(=O)N1CCN(C(=O)c2nsc3ccc(C)cc23)CC1	-14.85	-14.13
COc1ccc(OC)c(-c2nc(CN(C)Cc3nonc3C)c(C)o2)c1	-25.26	-24.84
c1ccc(CCCN2CC[C@H](c3nnc(-c4cccnc4)o3)C2)cc1	6.953	13.24 and 14.88
Cn1cc(-c2nc3c(cc2C(=O)O)CCN(C(=O)C2CC2)CC3)cn1.O=C(O)C(F)(F)F	1.806	-4.49 and -4.625
Cc1cc(CN2CCCC2c2noc(C(C)C)n2)on1 (configuration not stated)	-12.72	-3.876
Cc1cc(=O)[nH]c(NCCNC(=O)c2ccccc2N2CCCC2)n1	-49.38	-38.9 and -3.102
O=C(O)C(F)(F)F.[H][C@@]12CCN(c3ccncn3)[C@]1([H])CC[C@@H](C(=O)N1CCCCO1)O2	-9.784	-13.35
COCC1CCN(CCCc2cccc(OC)c2)CC1	6.556	-11.73
COCCCN(Cc1ccccn1)Cc1ccnn1C1CCCCO1.O=C(O)CC(O)(CC(=O)O)C(=O)O (configuration not stated)	-11.94	22.06
CCS(=O)(=O)N1CCc2ncnc(C)c2CC1	9.411	-29.36 and 10.24
Cc1cc(C)n(CCC2CC(=O)Nc3cc4[nH]ncc4cc32)n1 (configuration not stated)	-0.2374	3.443
Cc1ccc(NC(=O)[C@H]2C[C@H](C(=O)O)CN(CC3CC3)C2)cn1	-27.71	-3.755 and -36.22
COc1ncccc1NC(=O)C1CC(=O)N(Cc2ccccn2)C1 (configuration not stated)	-11.95	-15 and -1.946
CCOc1ncccc1Cn1cc(-c2ccc(CO)o2)nn1	0.09832	8.772
Cn1cnnc1SCc1cc2c(cc1Br)OCO2	-4.152	-11.97
CN(C)C(=O)CNC(=O)c1nc(C2CC2)n(-c2ccccc2Cl)n1	-0.353	17.32 and -2.33
COCC(C)(C#N)NC(=O)COc1ccccc1Br (configuration not stated)	1.548 and -9.176	7.137 and -0.2509
CC(C)Cc1nc(CO)n(-c2ccc3c(c2)OCCO3)n1	5.937	8.573 and -24.43
CS(=O)(=O)c1snnc1C1CCN(Cc2ccc3nccnc3c2)CC1	-5.963	-4.55
CCCC1CCCN(C(=O)CCn2cccn2)CC1 (configuration not stated)	29.12	26.36
CC(NC(=O)CNc1cc2c(cc1Cl)NC(=O)CO2)c1ccco1 (configuration not stated)	-33.75	-23.33
Cn1nccc1CN1CCCC(COc2ccccc2F)C1 (configuration not stated)	10.01	-16.5
Cc1nc(C2CCCN(C(=O)c3cc(Cl)c[nH]3)C2)sc1C (configuration not stated)	-6.607	7.42
NC(=O)CSc1ccccc1NC(=O)CC1C=CCC1 (configuration not stated)	20.64	6.91
CN1CCN(C(=O)c2cc(C#N)cs2)c2ccccc2C1	-10.56 and -38.2	10.38
[H][C@@]12C[C@H](C(=O)NCc3ccco3)CN(C(=O)N(C)C)[C@]1([H])CCO2	-24.56	-27.01
CN(CCCNC(=O)C1CCCN(C(N)=O)C1)S(C)(=O)=O (configuration not stated)	-12.67	-11.18
Cc1cc(C)n(C2CN(CC(=O)N(C)Cc3ccsc3)C2)n1	19.16 and -0.9592	22.59
O=C(NCc1cc(O)ncn1)C1COc2ccccc2C1 (configuration not stated)	-4.151	-27.27
NC(=O)c1ccccc1-n1cc(-c2cccc(C(=O)O)c2)cn1	-12.01	-5.883
CC(O)CN1CCN(C(=O)CCOC(C)C)CC1 (configuration not stated)	-17.84	-10.34
Cc1ccc(CN2CCCC3(CCCC(=O)N3)C2)s1.O=C(O)C(F)(F)F (configuration not stated)	7.743	-11.52
NC(=O)CCn1nnc(-c2cc3ccccc3o2)n1	5.039	6.535 and 13.88
CC(OCc1ccccc1)C(=O)NC1CCN(CC(N)=O)CC1 (configuration not stated)	-10.96	-24.32
Cc1ccc(NC2CCN(C(=O)CN(C)C3CC3)CC2)nn1	6.777	4.081
Cc1ncc2c(n1)CCN(C(=O)Cc1c(C)noc1C)C2	-2.3	-10.24
CN1C(=O)CO[C@H](c2ccc(NC(=O)NC(C)(C)C)cc2)[C@H]1CO	-39.19	-3.762 and -34.12
CSc1ncccc1C(=O)NCCC(O)c1cccs1 (configuration not stated)	16.03	-21.3 and -0.06896
CC[C@H](C)[C@@H](CO)NC(C)Cc1ccc(F)cc1 (some centres not stated)	4.486	10.15
O=c1[nH]nc2nc(N3CCSCC3)ccn12	8.68	-11.25
O=C(CCCc1ccccn1)N1CCOc2ccc(F)cc21	16.89	12.86 and 22.41
Cn1cnc2cc(C(=O)NS(=O)(=O)c3ccc(F)cc3)ccc21	9.8	1.244
Clc1cnccc1N1CCCC2(CCCOC2)C1 (configuration not stated)	0.299	5.197
CN(Cc1cnccn1)S(=O)(=O)N1CCCC1c1ccco1 (configuration not stated)	2.31	14.98
Cc1nc2n(n1)CC(NCc1nc(-c3ccccn3)no1)CC2 (configuration not stated)	7.584	-5.356
CNC(=O)CNC(=O)NCc1cc2c(s1)CCC(C)(C)C2	36.99	24.91
CCN1CC(C(=O)N2CCN(c3cnn(C)c(=O)c3)CC2)CCC1=O (configuration not stated)	20.13 and -2.815	-33.74
COC1(CNC(=O)c2ccoc2)CCSC1 (configuration not stated)	-4.762	7.187
CN(C)S(=O)(=O)N1CCC(Oc2ccc(C#N)cc2)CC1	-8.893	-24.47 and -0.5144
O=C(O)C(F)(F)F.O=C(O)C(F)(F)F.O=C(O)C(F)(F)F.[H][C@@]12CN(Cc3cccnc3)CCO[C@]1([H])CN(Cc1ccc(OC)cc1)C2	-2.166	-2.771 and -10.33

The last 6 entries again:

{"smiles": "Cc1nc2n(n1)CC(NCc1nc(-c3ccccn3)no1)CC2", "stereo": "configuration not stated", "Mtb cholesterol medium": 7.584, "Mtb glucose medium": -5.356}
{"smiles": "CNC(=O)CNC(=O)NCc1cc2c(s1)CCC(C)(C)C2", "Mtb cholesterol medium": 36.99, "Mtb glucose medium": 24.91}
{"smiles": "CCN1CC(C(=O)N2CCN(c3cnn(C)c(=O)c3)CC2)CCC1=O", "stereo": "configuration not stated", "Mtb cholesterol medium": "20.13 and -2.815", "Mtb glucose medium": -33.74}
{"smiles": "COC1(CNC(=O)c2ccoc2)CCSC1", "stereo": "configuration not stated", "Mtb cholesterol medium": -4.762, "Mtb glucose medium": 7.187}
{"smiles": "CN(C)S(=O)(=O)N1CCC(Oc2ccc(C#N)cc2)CC1", "Mtb cholesterol medium": -8.893, "Mtb glucose medium": "-24.47 and -0.5144"}
{"smiles": "O=C(O)C(F)(F)F.O=C(O)C(F)(F)F.O=C(O)C(F)(F)F.[H][C@@]12CN(Cc3cccnc3)CCO[C@]1([H])CN(Cc1ccc(OC)cc1)C2", "Mtb cholesterol medium": -2.166, "Mtb glucose medium": "-2.771 and -10.33"}